Here are results for 2 compounds from patent publication US9353092B2, “Synthesis and use of croconaine compounds” (University of Notre Dame du Lac, priority 2013, dated 2016).

This data set can be described thus: Singlet oxygen trapping experiment with DPBF. The class given is physicochemical. Conditions: 5.0 μM dye, DPBF 100 μM, 99:1 MeOH/CHCl3, Xenon lamp >620 nm, 0-3 minutes. The method, then:
Shown in FIGS. 16 and 17 are singlet oxygen trapping experiments that use the chemical trap DPBF to react with any singlet oxygen that is produced. Thus, the presence of singlet oxygen is detected by a decrease in the DPBF absorbance band at 400 nm. Experiments monitored the change in the absorption spectra of a solution of croconaine 1 (5.0 μM) and DPBF (100 μM) in 99:1 MeOH/CHCl3 with Xenon lamp irradiation (>620 nm) after 0, 1, 2 and 3 minutes.

As for `C#CCOCCN(CC)c1ccc(C2=C([O-])/C(=C3C=C/C(=[N+](/CC)CCOCC#C)S\3)C(=O)C2=O)s1` [Compound 1], the “Photogeneration of singlet oxygen (DPBF absorbance band at 400 nm)” value is “no singlet oxygen is produced”.
Consider `CC1(C)C(/C=C/C=C/C=C/C=C2\N(CCCCS(=O)(=O)O)c3ccc4ccccc4c3C2(C)C)=[N+](CCCCS(=O)(=O)[O-])c2ccc3ccccc3c21` [ICG, indocyanine green], for which the “Photogeneration of singlet oxygen (DPBF absorbance band at 400 nm)” value was “rapid loss of the DPBF absorbance band at 400 nm”.
